Source: PubChem BioAssay AID686938 (Drosophila RNAi Screening Center, 2013)
The screen tested about 23,000 reagents; shown is a random part of those that have a named target and a result. Over the whole deposit, 75 (0.33%) are marked active. 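Raw plate signals without normalisation; calls rest on plate z-scores that were not deposited; ratio present for only 364 wells.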 Reagents against one gene are numbered here. Names joined by + are all predicted targets of the reagent. No sequences are given here. Not given: the dose of the treatment.

Purpose: 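Fly genes required for calcium entry once internal stores are emptied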 (primary screen)
System: Drosophila S2R+ cells
Knock-down reagent: long dsRNA against Drosophila genes, about 0.25 µg dsRNA per well, roughly 10,000 cells
Duration: 5 days of knock-down before the calcium assay
Conditions: thapsigargin (SERCA pump blocker) to empty calcium stores; entry signal taken 4 min after adding it
Measurement: 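Duplicate raw fluo-4 intensities per well from a plate reader, at rest and four minutes after thapsigargin emptied calcium stores; entry-to-rest ratio filled for only some wells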
Scale: calcium entry signal: higher = stronger calcium signal after store depletion; entry to resting ratio: higher = more calcium entry relative to resting level; resting calcium signal: higher = higher resting calcium signal
Hit rule: 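Called when the plate z-score of the entry-to-rest ratio, mean of duplicates, falls below −3; wells with low overall dye signal (Fmax z below −2) or more than five off-targets excluded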
Meaning of the calls: active = strongly reduced calcium entry; inactive = no strong reduction

gene	reagent no.	calcium entry signal, replicate 1 (fluorescence units)	calcium entry signal, replicate 2 (fluorescence units)	entry to resting ratio	resting calcium signal, replicate 1 (fluorescence units)	resting calcium signal, replicate 2 (fluorescence units)	activity call
CG10898	1	2.42e7	2.76e7		1.04e7	1.39e7	inactive
slv	1	2.67e7	4.49e7		1.34e7	1.83e7	inactive
CG5877	1	3.29e7	3.71e7		1.57e7	1.61e7	inactive
CG32354	1	4.10e7	2.93e7		2.70e7	1.32e7	inactive
CG32354	2	2.22e7	5.30e7		1.02e7	2.52e7	inactive
CG32354	3	3.46e7	5.52e7		1.60e7	2.66e7	inactive
Sfxn2	1	2.29e7	3.87e7		1.19e7	1.70e7	inactive
Pino	1	2.12e7	2.23e7		1.37e7	1.32e7	inactive
Pino	2	4.31e7			2.41e7		inactive
Vps2	1	3.60e7	3.91e7		1.96e7	2.10e7	inactive
Rad51D	1	3.90e7	4.32e7		1.84e7	1.83e7	inactive
CG4669	1	5.09e7	5.13e7		3.10e7	1.95e7	inactive
CG15071	1	5.40e7	6.12e7		2.47e7	3.05e7	inactive
CG34292	1	3.18e7	2.28e7		1.61e7	1.26e7	inactive
CG32425	1	1.53e7	3.24e7		1.04e7	1.79e7	inactive
CG32425	2	3.79e7	5.09e7		1.81e7	3.32e7	inactive
Klp59D	1	3.66e7	4.29e7		1.98e7	2.01e7	inactive
UbcE2M	1	4.40e7	4.58e7		2.76e7	1.80e7	inactive
CG18469	1	2.19e7	5.60e7		1.05e7	2.19e7	inactive
CG4452	1	5.33e7	4.94e7		3.47e7	1.90e7	inactive
CG10702	1	4.62e7			2.10e7		inactive
CG15330	1	3.00e7	4.47e7		1.53e7	2.15e7	inactive
CG1105	1	3.39e7	4.91e7		1.48e7	1.98e7	inactive
CG8478	1	3.29e7	3.89e7		1.52e7	1.87e7	inactive
Spn42Da	1	2.36e7	2.87e7		1.11e7	1.22e7	inactive
CG11409	1	4.04e7	4.20e7		1.94e7	1.99e7	inactive
Takl2	1	4.78e7	6.52e7		2.18e7	2.70e7	inactive
GILT2	1	4.77e7	4.34e7		2.22e7	1.81e7	inactive
E(spl)m4-BFM	1	3.31e7	5.52e7		1.83e7	2.39e7	inactive
CG14312	1	4.12e7	4.49e7		6.14e7	2.12e7	inactive
Npc2f	1	3.04e7	3.40e7		1.45e7	1.53e7	inactive
Rad1 + Sws1	1	3.90e7	5.54e7		1.83e7	2.21e7	inactive
CG33124	1	2.40e7	2.84e7		1.17e7	1.14e7	inactive
CG14810	1	4.53e7	3.80e7		2.22e7	1.78e7	inactive
CG14810	2	3.75e7	5.12e7	2.1	1.79e7	1.97e7	inactive
pain	1	4.03e7	4.89e7		2.16e7	2.22e7	inactive
lap	1	4.51e7	4.56e7		1.81e7	1.97e7	inactive

Records above whose gene name begins with R or r:
gene	reagent no.	calcium entry signal, replicate 1 (fluorescence units)	calcium entry signal, replicate 2 (fluorescence units)	entry to resting ratio	resting calcium signal, replicate 1 (fluorescence units)	resting calcium signal, replicate 2 (fluorescence units)	activity call
Rad51D	1	3.90e7	4.32e7		1.84e7	1.83e7	inactive
Rad1 + Sws1	1	3.90e7	5.54e7		1.83e7	2.21e7	inactive

Additional reagents follow:
gene	reagent no.	calcium entry signal, replicate 1 (fluorescence units)	calcium entry signal, replicate 2 (fluorescence units)	entry to resting ratio	resting calcium signal, replicate 1 (fluorescence units)	resting calcium signal, replicate 2 (fluorescence units)	activity call
CG32536 + CG32537	1	4.99e7	3.81e7		2.42e7	1.83e7	inactive
CG6908	1	4.05e7	3.83e7		2.06e7	1.97e7	inactive
CG3769	1	3.08e7	4.94e7		1.47e7	2.08e7	inactive
Obp83a	1	4.09e7	2.83e7		1.86e7	1.40e7	inactive
RpS30	1	9.89e6	1.14e7		8.03e6	8.44e6	inactive
CG16719	1	5.35e7	4.22e7		3.34e7	1.73e7	inactive
Oatp58Dc	1	3.65e7			1.79e7		inactive
Unc-115a	1	3.03e7	5.31e7		1.48e7	2.11e7	inactive
gro	1	4.54e7	5.26e7		2.01e7	2.14e7	inactive
CG8117	1	3.58e7	3.40e7		1.79e7	1.45e7	inactive
CHKov2	1	2.94e7	3.10e7		1.35e7	1.46e7	inactive
CG1146	1	4.53e7	4.07e7		2.00e7	1.97e7	inactive
PIG-H	1	4.31e7	3.05e7		2.05e7	1.45e7	inactive
Or59a	1	3.09e7	4.33e7		1.74e7	2.03e7	inactive
CG7523	1	3.84e7	3.70e7		1.74e7	1.59e7	inactive
nmdyn-D6	1	3.89e7	3.47e7		1.94e7	1.63e7	inactive
Ude	1	5.26e7	4.22e7		2.47e7	1.85e7	inactive
Cyp6t1	1	5.14e7	4.55e7		2.49e7	1.96e7	inactive
dap	1	3.32e7	2.89e7		1.34e7	1.43e7	inactive
CG15412	1	2.39e7	2.53e7		1.15e7	1.32e7	inactive
inaC	1	3.69e7	4.45e7		1.70e7	1.97e7	inactive
